Reference: patent publication US20220079912A1, “ANTICANCER FORMULATION” (University of Mississippi, priority 2018, published 2022)
At least one structure is not confirmed: it was looked up by name or label, or the drawing left a doubt.

Key:
TXNIP protein levels [1] = assay: Western blot of TXNIP protein, MDA-MB-231 cell line; assay type: cell-based, human; conditions: FIG. 16, FIG. 18
Excerpt: (§1) AMPK activation has been previously shown to phosphorylate and cause the degradation of TXNIP during energy stress (13).

TXNIP protein levels [2] = assay: Western blot of TXNIP protein, T98G cell line; assay type: cell-based, human; conditions: FIG. 15, FIG. 17
Excerpt: as §1

[3] = GH 8 μM 6 hrs or 3 hrs, 2-DG 25 mM, OXA 25 mM, BPX 25 μM, DCA 25 mM, 6 hr

O=C(O)C(Cl)Cl [DCA, dichloroacetate]
TXNIP protein levels, in combination with Ph (TXNIP protein levels [1]): reduced TXNIP protein levels | TXNIP protein levels, agent alone (TXNIP protein levels [1]; [3]): do not substantially reduce TXNIP protein levels | TXNIP protein levels, in combination with Ph (TXNIP protein levels [2]): reduced TXNIP protein levels | TXNIP protein levels, agent alone (TXNIP protein levels [2]; [3]): do not substantially reduce TXNIP protein levels
